# Data from PubChem BioAssay AID2551 (National Center for Advancing Translational Sciences (NCATS), 2010).
# Protein sequences, listed by entry. Tags and fused reporters are not part of them. Lines headed by an entry give the natural chain unless they say otherwise; changes in a name come on top.
# UniProt P51450: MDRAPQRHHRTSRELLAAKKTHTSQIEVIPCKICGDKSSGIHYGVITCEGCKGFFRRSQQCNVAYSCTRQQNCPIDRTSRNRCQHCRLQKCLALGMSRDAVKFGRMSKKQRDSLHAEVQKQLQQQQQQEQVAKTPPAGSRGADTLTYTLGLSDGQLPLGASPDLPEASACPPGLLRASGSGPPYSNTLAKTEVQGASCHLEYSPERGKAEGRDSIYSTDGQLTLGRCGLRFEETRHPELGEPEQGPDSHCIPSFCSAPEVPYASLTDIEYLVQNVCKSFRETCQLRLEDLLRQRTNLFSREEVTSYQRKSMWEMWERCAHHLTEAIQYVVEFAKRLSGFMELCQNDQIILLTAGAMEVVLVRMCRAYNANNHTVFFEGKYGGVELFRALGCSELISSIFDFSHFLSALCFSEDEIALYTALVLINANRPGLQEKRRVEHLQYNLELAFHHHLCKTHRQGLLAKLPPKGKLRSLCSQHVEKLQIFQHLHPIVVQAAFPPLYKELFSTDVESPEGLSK
# The whole screen tested about 310,000 compounds, of which about 17,000 (5.5%) were called active. This list was built around the results that the source calls inconclusive (neither active nor inactive); the mix of calls is not that of the screen. Calls follow the shape of the dose curve; as a rule, active = well fitted inhibition curve with a large enough effect; inconclusive = small, poorly fitted or top-dose-only effect, or effect the other way; inactive = no such curve, though single readings can be large or run the other way. Where the call is inconclusive, the potency comes from a doubtful curve fit.
# Molecular target: Nuclear receptor ROR-gamma (Mus musculus) (UniProt P51450)
# Assay: qHTS for inhibitors of ROR gamma transcriptional activity; also: nearly all actives have a fitted effect of over 60% in size
# Details: Drosophila S2 Gal4-RORgamma UAS-luciferase reporter, 20 h; series mostly up to 53.6 µM
# Method in brief: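 Compounds are pin-transferred onto Drosophila Schneider cells expressing a copper-inducible Gal4–ROR gamma transactivation domain fusion. After 1 hr, copper sulfate is added to 700 uM final; luciferase is read 20 hr later.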
# Potency is read from the fitted curve at half-maximal effect.
row,SMILES,Potency
1,CC(=O)c1ccc(OCC(O)CN2CCN(S(=O)(=O)c3c(C)c(C)cc(C)c3C)CC2)cc1 (stereo not drawn),"inconclusive: 35.5 µM [activator, single point]"
2,CCOc1ccc(NCC(=O)Nc2ccc(Cl)cc2C)cc1,inactive
3,COc1ccc2nc(N3CCCCC3)c(/C=C3\SC(=S)NC3=O)cc2c1,"inconclusive: 5.62 µM [inhibitor, partial curve, poor fit]"
4,COc1ccccc1NS(=O)(=O)c1ccc2oc(SCC(C)=O)nc2c1,"inconclusive: 12.6 µM [activator, partial curve]"
5,O=C(Nc1nc(-c2ccccn2)cs1)c1ccccc1-n1cnnn1,active: 5.01 µM
6,N#Cc1ccc(-c2csc(NC(=O)C3CC3)n2)cc1,inactive
7,Cc1ccc(S(=O)(=O)NCC(=O)N/N=C/c2ccc(Cl)cc2Cl)cc1,"inconclusive: 12.6 µM [inhibitor, single point]"
8,O=S(=O)(Nc1ccncc1)c1cc(Cl)c(Cl)cc1Cl,"inconclusive: 11.2 µM [inhibitor, single point]"
9,Cc1ccc2oc(C(=O)Nc3nnc(C)s3)c(C)c2c1,"inconclusive: 1.58 µM [activator, partial curve]"
10,Nc1nc2nc(-c3ccc(OCc4ccccc4)cc3)cc(C(F)(F)F)n2n1,inactive
11,Cn1ccc(C(=O)NC(=S)N2CCSCC2)n1,active: 11.2 µM
12,NS(=O)(=O)c1ccc(NC(=O)C(Sc2ccccc2)c2ccccc2)cc1 (stereo not drawn),"inconclusive: 17.8 µM [activator, partial curve]"
13,Cc1nn(C)c(C)c1CN(C)S(=O)(=O)c1ccc2ccccc2c1,"inconclusive: 2.51 µM [activator, partial curve]"
14,O=C(Cn1nc(CNc2ccc(Br)cc2)[n+]2c1CCCCC2)c1ccc([N+](=O)[O-])cc1,"inconclusive: 2.82 µM [inhibitor, single point]"
15,CCOC(=O)N1CCN(S(=O)(=O)c2ccc(F)c(C(=O)Nc3ccc(C(C)C)cc3)c2)CC1,"inconclusive: 35.5 µM [activator, single point]"
16,O=C(c1ccc(-c2nc3ccccc3s2)s1)N1CCOCC1,active: 4.47 µM
17,COC(=O)CCS(=O)(=O)c1nc(-c2ccccc2)cc(C(F)(F)F)n1,active: 7.08 µM
18,CS(=O)(=O)N1CCc2cc(C(=O)OCC(=O)c3ccccc3)ccc21,"inconclusive: 1.58 µM [activator, partial curve, poor fit]"
19,COc1ccc(NC(=O)CCS(=O)(=O)c2cccc3nonc23)cc1,inactive
20,C=CCn1c(SCC(=O)N2CCN(C(=O)c3ccco3)CC2)nc2sc(CC)cc2c1=O,"inconclusive: 0.126 µM [inhibitor, single point]"
21,COc1ccc(OC(=O)/C=C/c2ccc([N+](=O)[O-])cc2)cc1,"inconclusive: 11.2 µM [inhibitor, partial curve]"
22,COc1cc(/C=N/NC(=O)c2sc(N)c(C#N)c2C)ccc1O,inactive
23,CC(=O)c1cccc(NS(=O)(=O)c2ccc3c(c2)N(C(C)=O)CCO3)c1,"inconclusive: 28.2 µM [activator, single point]"
24,Cc1onc(NC(=O)c2ccc([N+](=O)[O-])o2)c1Br,"inconclusive: 0.1 µM [inhibitor, partial curve, poor fit]"

row,SMILES,Potency
1,O=C(N/N=C/c1ccc(N2CCCCC2)o1)c1ccccc1,active: 5.01 µM
2,Nc1ccc(Br)c2cccnc12,"inconclusive: 22.4 µM [inhibitor, single point]"
3,O=C(N[C@@H](Cc1ccccc1)C(=O)OCc1ccccc1)c1nc[nH]c1C(=O)NC(c1ccccc1)c1ccccc1,active: 3.55 µM
4,Cc1ccc(-c2nc(C3CCN(S(=O)(=O)c4ccc(C(C)(C)C)cc4)CC3)no2)cc1,inactive
5,COc1ccc2c(c1OC)C(=O)N1C(C(=O)O)Cc3c([nH]c4ccccc34)C21 (stereo not drawn),"inconclusive: 11.2 µM [inhibitor, single point]"
6,COCCn1c(SCC(=O)Nc2cc(Cl)ccc2OC)nc2c(c1=O)SC(C)C2 (stereo not drawn),"inconclusive: 12.6 µM [activator, partial curve]"
7,O=C(CN1C(=O)/C(=C/c2ccc(C(F)(F)F)cc2)Sc2ccccc21)NCCCN1CCOCC1,"inconclusive: 35.5 µM [inhibitor, single point]"
8,COCCCNC(=O)Cn1cc(/C=C(\C#N)C(=O)NC2CCCC2)c2ccccc21,inactive
9,Cc1ccc(S(=O)(=O)/N=C(/Nc2cccc(O)c2)c2ccccc2)cc1,"inconclusive: 35.5 µM [activator, single point]"
10,CCCC(=O)N1CCc2cc(OC)c(OC)cc2C1COc1ccccc1OC (stereo not drawn),inactive
11,O=C(COc1ccccc1Br)c1ccc(O)cc1O,active: 10 µM
12,S=C(NCCc1ccccc1)Nc1ccc(Nc2ccccc2)cc1,active: 5.01 µM
13,Cc1cccc(NC(=O)CN2C(=O)S/C(=C\c3ccccn3)C2=O)c1,inactive
14,CSc1cccc(NC(N)=S)c1,inactive
15,O=C(COC(=O)C1(c2ccccc2F)CCCC1)NCc1ccc2c(c1)OCO2,inactive
16,C/C(=N/O)c1cccc(N2Cc3ccccc3C2)c1,"inconclusive: 3.98 µM [inhibitor, full curve]"
17,S=c1[nH]nc(-c2ccc(Br)cc2)n1Cc1ccco1,active: 1.41 µM
18,Cc1ccc(NC(=S)NNC(=O)c2cccc([N+](=O)[O-])c2)cc1Cl,"inconclusive: 8.91 µM [inhibitor, partial curve]"
19,CC1(C)OC(=CC=Nc2ccc(Cl)cc2)OC1(C)C,inactive
20,CCOc1ccc(-c2c(C(=O)N/N=C/c3ccoc3)nnn2-c2nonc2N)cc1,"inconclusive: 5.62 µM [inhibitor, partial curve, poor fit]"
21,CC(C)(C)n1nnnc1C(c1cccc(C#N)c1)N1CCN2CCCC2C1 (stereo not drawn),inactive
22,CC(C)NC(=S)NN(c1ccccc1)c1ccccc1,"inconclusive: 17.8 µM [inhibitor, single point]"
23,COc1ccc(CCNC(=S)Nc2cccc3ccccc23)cc1,active: 5.01 µM
24,CCC(=O)NCCCCCCCCCNC(=O)CC,inactive

# Of the compounds above, these have a nitro group on carbon:
row,SMILES,Potency
14,O=C(Cn1nc(CNc2ccc(Br)cc2)[n+]2c1CCCCC2)c1ccc([N+](=O)[O-])cc1,"inconclusive: 2.82 µM [inhibitor, single point]"
21,COc1ccc(OC(=O)/C=C/c2ccc([N+](=O)[O-])cc2)cc1,"inconclusive: 11.2 µM [inhibitor, partial curve]"
24,Cc1onc(NC(=O)c2ccc([N+](=O)[O-])o2)c1Br,"inconclusive: 0.1 µM [inhibitor, partial curve, poor fit]"
18,Cc1ccc(NC(=S)NNC(=O)c2cccc([N+](=O)[O-])c2)cc1Cl,"inconclusive: 8.91 µM [inhibitor, partial curve]"

# Exported bar-delimited: part of the list above
row | SMILES | Potency
7 | O=C(CN1C(=O)/C(=C/c2ccc(C(F)(F)F)cc2)Sc2ccccc21)NCCCN1CCOCC1 | inconclusive: 35.5 µM [inhibitor, single point]
22 | CC(C)NC(=S)NN(c1ccccc1)c1ccccc1 | inconclusive: 17.8 µM [inhibitor, single point]
